# According to the supplement of paper PMC8728848:
# This is one part of the list.
# B1: CM2 (Cordyceps militaris) (protein)
# chain: MEIAEQNVGKSCAIVNLIPPKEGSNIWTAKQVTIARNLPPNRGTGRHQIDWSFGPVKVTGYVDTTNWEIGVTVSIMGIDLGTVYGNLRDGVVLNVDLFLAKGQVRFYLKNGNEVWVHLSVEIRFDGKFEGDYKIITV
# Key:
# Assay in all cases: glycan array binding signal (z-score within array); higher = stronger binding
# Conditions in all cases: glycan notation: IUPAC condensed, linker removed
# [1] = target: Fuc(a1-3)[Gal3S(b1-4)]GlcNAc6S
# Procedure, shortened: (§1)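 Glycan array data came from 3228 arrays in the Consortium for Functional Glycomics database, and only arrays with an available protein sequence were kept. Glycan names were put into IUPAC-condensed notation, and columns mapping to the same glycan were averaged. The binding signal is a within-array Z-score, averaged across arrays of one protein sequence run at different concentrations or buffers and across linkers. A negative Z-score can be read as non-binding.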
# [2] = target: Fuc(a1-3)[GalNAc(b1-4)]GlcNAc
# Procedure, shortened: as §1
# [3] = target: Fuc(a1-3)[GalNAc(b1-4)]GlcNAc6S
# Procedure, shortened: as §1
# [4] = target: Fuc(a1-4)GlcNAc
# Procedure, shortened: as §1
# [5] = target: Fuc(b1-3)GlcNAc
# Procedure, shortened: as §1
# [6] = target: Gal(a1-2)Gal
# Procedure, shortened: as §1
# [7] = target: Gal(a1-3)Gal
# Procedure, shortened: as §1
# [8] = target: Gal(a1-3)Gal(b1-3)GlcNAc
# Procedure, shortened: as §1
# [9] = target: Gal(a1-3)Gal(b1-3)GlcNAc(b1-2)Man
# Procedure, shortened: as §1
# [10] = target: Gal(a1-3)Gal(b1-3)GlcNAc(b1-2)Man(a1-3)[Gal(a1-3)Gal(b1-3)GlcNAc(b1-2)Man(a1-6)]Man(b1-4)GlcNAc(b1-4)GlcNAc
# Procedure, shortened: as §1
# [11] = target: Gal(a1-3)Gal(b1-3)GlcNAc(b1-3)GalNAc
# Procedure, shortened: as §1
# [12] = target: Gal(a1-3)Gal(b1-3)GlcNAc(b1-6)GalNAc
# Procedure, shortened: as §1
# [13] = target: Gal(a1-3)Gal(b1-3)[Fuc(a1-4)]GlcNAc(b1-2)Man(a1-3)[Gal(a1-3)Gal(b1-3)[Fuc(a1-4)]GlcNAc(b1-2)Man(a1-6)]Man(b1-4)GlcNAc(b1-4)GlcNAc
# Procedure, shortened: as §1
# [14] = target: Gal(a1-3)Gal(b1-4)Glc
# Procedure, shortened: as §1
# [15] = target: Gal(a1-3)Gal(b1-4)GlcNAc
# Procedure, shortened: as §1
# [16] = target: Gal(a1-3)Gal(b1-4)GlcNAc(b1-2)Man
# Procedure, shortened: as §1
# [17] = target: Gal(a1-3)Gal(b1-4)GlcNAc(b1-2)Man(a1-3)[Gal(a1-3)Gal(b1-4)GlcNAc(b1-2)Man(a1-6)]Man(b1-4)GlcNAc(b1-4)GlcNAc
# Procedure, shortened: as §1
# [18] = target: Gal(a1-3)Gal(b1-4)GlcNAc(b1-3)GalNAc
# Procedure, shortened: as §1
# [19] = target: Gal(a1-3)Gal(b1-4)GlcNAc(b1-6)GalNAc
# Procedure, shortened: as §1
# [20] = target: Gal(a1-3)Gal(b1-4)[Fuc(a1-3)]GlcNAc
# Procedure, shortened: as §1
# [21] = target: Gal(a1-3)Gal(b1-4)[Fuc(a1-3)]GlcNAc(b1-2)Man(a1-3)[Gal(a1-3)Gal(b1-4)[Fuc(a1-3)]GlcNAc(b1-2)Man(a1-6)]Man(b1-4)GlcNAc(b1-4)GlcNAc
# Procedure, shortened: as §1
# [22] = target: Gal(a1-3)GalNAc
# Procedure, shortened: as §1
# [23] = target: Gal(a1-3)[Gal(a1-4)]Gal(b1-4)GlcNAc
# Procedure, shortened: as §1
# [24] = target: Gal(a1-4)Gal(b1-3)GlcNAc(b1-2)Man(a1-3)[Gal(a1-4)Gal(b1-3)GlcNAc(b1-2)Man(a1-6)]Man(b1-4)GlcNAc(b1-4)GlcNAc
# Procedure, shortened: as §1
# [25] = target: Gal(a1-4)Gal(b1-4)Glc
# Procedure, shortened: as §1
# [26] = target: Gal(a1-4)Gal(b1-4)GlcNAc
# Procedure, shortened: as §1
# [27] = target: Gal(a1-4)Gal(b1-4)GlcNAc(b1-2)Man(a1-3)[Gal(a1-4)Gal(b1-4)GlcNAc(b1-2)Man(a1-6)]Man(b1-4)GlcNAc(b1-4)GlcNAc
# Procedure, shortened: as §1
# [28] = target: Gal(a1-4)Gal(b1-4)GlcNAc(b1-3)Gal(b1-4)Glc
# Procedure, shortened: as §1
# [29] = target: Gal(a1-4)GlcNAc
# Procedure, shortened: as §1
# [30] = target: Gal(a1-6)Glc
# Procedure, shortened: as §1
# [31] = target: Gal(b1-2)Gal
# Procedure, shortened: as §1
# [32] = target: Gal(b1-3)Gal
# Procedure, shortened: as §1
# [33] = target: Gal(b1-3)Gal(b1-4)GlcNAc
# Procedure, shortened: as §1
# [34] = target: Gal(b1-3)GalNAc
# Procedure, shortened: as §1
# [35] = target: Gal(b1-3)GalNAc(a1-3)[Fuc(a1-2)]Gal(b1-4)Glc
# Procedure, shortened: as §1
# [36] = target: Gal(b1-3)GalNAc(a1-3)[Fuc(a1-2)]Gal(b1-4)GlcNAc
# Procedure, shortened: as §1
# [37] = target: Gal(b1-3)GalNAc(b1-3)Gal
# Procedure, shortened: as §1
# [38] = target: Gal(b1-3)GalNAc(b1-3)Gal(a1-4)Gal(b1-4)Glc
# Procedure, shortened: as §1
# [39] = target: Gal(b1-3)GalNAc(b1-4)Gal(b1-4)Glc
# Procedure, shortened: as §1
# [40] = target: Gal(b1-3)GalNAc(b1-4)[Neu5Ac(a2-3)]Gal(b1-4)Glc
# Procedure, shortened: as §1
# [41] = target: Gal(b1-3)GlcNAc
# Procedure, shortened: as §1
# [42] = target: Gal(b1-3)GlcNAc(a1-3)Gal(b1-4)GlcNAc
# Procedure, shortened: as §1
# [43] = target: Gal(b1-3)GlcNAc(a1-6)Gal(b1-4)GlcNAc
# Procedure, shortened: as §1
# [44] = target: Gal(b1-3)GlcNAc(b1-2)Man
# Procedure, shortened: as §1
# [45] = target: Gal(b1-3)GlcNAc(b1-2)Man(a1-3)[Gal(b1-3)GlcNAc(b1-2)Man(a1-6)]Man(b1-4)GlcNAc(b1-4)GlcNAc
# Procedure, shortened: as §1
binder,measurement,setting,value
B1,glycan array binding signal (z-score),[1],-1.04
same,glycan array binding signal (z-score),[2],0.407
same,glycan array binding signal (z-score),[3],-0.502
same,glycan array binding signal (z-score),[4],1.23
same,glycan array binding signal (z-score),[5],-1.33
same,glycan array binding signal (z-score),[6],-0.219
same,glycan array binding signal (z-score),[7],-0.048
same,glycan array binding signal (z-score),[8],0.474
same,glycan array binding signal (z-score),[9],-0.692
same,glycan array binding signal (z-score),[10],-0.635
same,glycan array binding signal (z-score),[11],-1.36
same,glycan array binding signal (z-score),[12],-0.74
same,glycan array binding signal (z-score),[13],1.32
same,glycan array binding signal (z-score),[14],1.11
same,glycan array binding signal (z-score),[15],0.413
same,glycan array binding signal (z-score),[16],-0.924
same,glycan array binding signal (z-score),[17],0.458
same,glycan array binding signal (z-score),[18],0.113
same,glycan array binding signal (z-score),[19],-0.847
same,glycan array binding signal (z-score),[20],-0.498
same,glycan array binding signal (z-score),[21],-0.632
same,glycan array binding signal (z-score),[22],-0.215
same,glycan array binding signal (z-score),[23],-1.05
same,glycan array binding signal (z-score),[24],0.151
same,glycan array binding signal (z-score),[25],0.842
same,glycan array binding signal (z-score),[26],-0.275
same,glycan array binding signal (z-score),[27],0.617
same,glycan array binding signal (z-score),[28],0.58
same,glycan array binding signal (z-score),[29],-1.74
same,glycan array binding signal (z-score),[30],-0.883
same,glycan array binding signal (z-score),[31],1.72
same,glycan array binding signal (z-score),[32],0.686
same,glycan array binding signal (z-score),[33],-0.624
same,glycan array binding signal (z-score),[34],0.369
same,glycan array binding signal (z-score),[35],0.886
same,glycan array binding signal (z-score),[36],-0.642
same,glycan array binding signal (z-score),[37],-1.31
same,glycan array binding signal (z-score),[38],1.44
same,glycan array binding signal (z-score),[39],-0.582
same,glycan array binding signal (z-score),[40],-0.259
same,glycan array binding signal (z-score),[41],-1.5
same,glycan array binding signal (z-score),[42],-0.31
same,glycan array binding signal (z-score),[43],0.701
same,glycan array binding signal (z-score),[44],0.405
same,glycan array binding signal (z-score),[45],-0.292

# Three entries from above, with bars between the fields:
binder | measurement | setting | value
B1 | glycan array binding signal (z-score) | [15] | 0.413
same | glycan array binding signal (z-score) | [16] | -0.924
same | glycan array binding signal (z-score) | [17] | 0.458
